# In PMC3091666:
# Chains of the proteins cited; added tags and fusions are not shown.
# UniProt P05852: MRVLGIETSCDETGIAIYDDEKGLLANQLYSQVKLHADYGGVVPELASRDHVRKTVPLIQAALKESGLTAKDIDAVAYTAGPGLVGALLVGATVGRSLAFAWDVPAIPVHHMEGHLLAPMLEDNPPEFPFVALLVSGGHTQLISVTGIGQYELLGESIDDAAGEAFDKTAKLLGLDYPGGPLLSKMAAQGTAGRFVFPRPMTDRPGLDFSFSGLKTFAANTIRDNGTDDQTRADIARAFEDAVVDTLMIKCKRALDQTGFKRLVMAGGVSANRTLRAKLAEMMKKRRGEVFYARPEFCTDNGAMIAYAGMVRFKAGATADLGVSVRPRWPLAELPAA
# These are yes or no findings as the source states them, for the method shown. Some results given as binding are weak or reduced against the parent protein; the word gives no strength.
# Molecular target: E. coli YgjD (E. coli K-12) (UniProt P05852)
# Experiment: two-hybrid; yeast two-hybrid; baits fused to the Gal4 DNA binding domain, pGADT7g vector as negative control for autoactivation; conducted as described by Rajagopala et al. 2007
substance,measurement,value
E. coli YeaZ (from UniProt P76256 1-231),binding,binds
